Source: patent EP4635969A1, “NOVEL GLUCOCORTICOID, METHOD FOR PREPARING SAME, AND USE THEREOF” (Tianjin Pharmaceutical Biotechnology Co., Ltd., priority 2022, dated 2024)
At least one compound was matched to its structure with a doubt left.

What was measured:
Settings in all cases: compared with the model group
[1] = test system: inflammatory bowel disease model rats; test: Inflammatory bowel disease experiment (TNBS model): macroscopic injury score of the colon; type: in vivo
Description: Pharmacological Example 7: Pharmacodynamic Experiment on Inflammatory Bowel Disease in Rats
Test samples: The jet-milled compounds 23 and 34 were accurately weighed and prepared as 2 mg/mL clear solutions using anhydrous ethanol, respectively. The solutions were then diluted to 0.2 mg/mL with double-distilled water as the test samples, and stored at room temperature protected from light until use.
Animals in Groups 2 to 5 were subjected to trinitrobenzene sulfonic acid (TNBS) modeling as follows: A 5% TNBS aqueous solution was adjusted to 20 mg/mL TNBS (50% ethanol solution) with alcohol and water. After fasting for 24 h, the rats were anesthetized using an inhalation anesthesia machine. A silicone hose was inserted approximately 8 cm into the anus, and then TNBS was injected at a dose of 50 mg/kg. After injection, the rats were placed vertically for 1 min to prevent the backflow of TNBS solution. Then, the rats were placed into their cages for observation until the animals recovered.
Drug administration started one day before modeling, with one dose administered 1 hour before modeling and then once a day for 5 consecutive days. […] Table 14. Animal grouping and drug administration dosages
The experiment ended on day 5 after TNBS modeling. […]
Quantitative indices were first subjected to Bartlett's test for homogeneity of variance. […]

asthma model mice = test: Anti-asthma pharmacodynamic experiment: airway hyperresponsiveness (Penh) after methacholine challenge; type: in vivo, female BALB/c mice
[2] = test system: inflammatory cytokines IL-6 and IL-12; test: Anti-asthma pharmacodynamic experiment: inflammatory cytokines in bronchoalveolar lavage fluid (ELISA); type: in vivo, female BALB/c mice

SMILES	inflammatory response on the intestinal surface / intestinal symptoms [1]	Effects on airway hyperresponsiveness (Penh values) in mice (asthma model mice)	Effects on inflammatory cytokines in bronchoalveolar lavage fluid of mice [2]
C[C@@H]1C[C@H]2[C@@H]3CCC4=CC(=O)C=C[C@]4(C)[C@@]3(F)[C@@H](O)C[C@]2(C)[C@@]1(O)C(=O)CO [Dexamethasone, reference compound]	significantly inhibited the inflammatory response on the intestinal surface	–	–
CCCC1O[C@@H]2C[C@H]3[C@@H]4CCC5=CC(=O)C=C[C@]5(C)[C@H]4[C@@H](O)C[C@]3(C)[C@]2(C(=O)CO)O1 (stereo partly drawn) [Budesonide, reference compound]	–	significantly decreased the Penh values in mice	extremely significantly decreased the levels of IL-6 and IL-12 in mice
